# Test results reported in PubChem BioAssay AID624405 (Broad Institute, 2012).
# The whole screen tested about 1,900 compounds, of which about 250 (13%) were called active. Not shown: some 4% with an inconclusive outcome.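 The calls were made as follows: active = fitted curve reaches 40% rescue activity at or below the top valid dose, in every test run; inconclusive = test runs disagree, some active and some inactive; inactive = every run misses the threshold or moves the wrong way.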 The entries are a selection whose mix differs from that of the whole data set. Entries with a potency or affinity are not part of this list.
# Assay: suppressors of statin myotoxicity in myotubes, dose response, cell-based, C2C12 myotubes, ATP luminescence, cherry pick (AID 624405);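 also: myotubes are challenged with simvastatin at 10 µM to lower ATP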
# Conditions: C2C12 myotubes + simvastatin, 48 h, scaled: DMSO wells 0, geranylgeraniol wells 100; at 19.5 µM (top of the series) unless noted
row,SMILES,rescue activity (ATP increase)
1,C[C@@H]1CCCCO[C@H](CN(C)C(=O)Nc2ccc3c(c2)OCO3)[C@H](C)CN([C@@H](C)CO)C(=O)c2cc(NS(=O)(=O)c3ccc(F)cc3)ccc2O1,inactive: 30.1%
2,C=CCCCCCCCCc1nc(=S)[nH][nH]1,inactive: 37.8%
3,O=c1[nH]nc(Cc2ccc(Cl)cc2Cl)c2ccccc12,inactive: 27.6%
4,Cc1ccc(-n2ncc3c(=O)[nH]c(SCC(=O)N4CCOCC4)nc32)cc1,inactive: -8.65%
5,O=C1C=C(c2cccc(Cl)c2)C[C@@H](c2ccc3c(c2)OCO3)C1,inactive: 23.2%
6,CCCCOc1nc2ccccc2nc1C(C#N)C(=O)NC1CCCCC1 (centres undefined),inactive: -30.1%
7,COc1cccc(S(=O)(=O)N(C)C[C@H]2OCc3ccccc3-c3c(n(C)c4ccccc34)C(=O)N([C@H](C)CO)C[C@H]2C)c1,inactive: -1.38%
8,Cc1noc(C)c1NC(=O)Nc1ccc2c(c1)CC(=O)N([C@H](C)CO)C[C@H](C)[C@@H](CN(C)Cc1ccc(C(F)(F)F)cc1)O2,inactive: 4.75%
9,COc1cc(S(=O)(=O)Nc2ncccc2C)c(OC)cc1Cl,inactive: 7.54%
10,O=C(CSc1nc2ccccc2[nH]1)Nc1ccc2c(c1)OCCO2,inactive: -4.52%
11,COc1ccc(NC(=O)Nc2ccc3c(c2)C(=O)N([C@@H](C)CO)C[C@@H](C)[C@H](CN(C)C(=O)C2CCCCC2)OCCCC[C@H](C)O3)cc1,inactive: -1.73%
12,C=CCn1c(COc2cccc3cccnc23)nnc1SCC(=O)O,inactive: 9.15%
13,O=C(Cc1cn2ccsc2n1)Nc1ccccc1Oc1ccccc1,inactive: 53.2% [at 10 µM]
14,COc1ccc(NC(=O)Nc2ccc3c(c2)C(=O)N([C@@H](C)CO)C[C@H](C)[C@@H](CN(C)Cc2ccc(C(F)(F)F)cc2)OCCCC[C@@H](C)O3)cc1,inactive: -51.8%
15,CC(=O)c1cc(C#N)c(Oc2ccccc2)nc1C,inactive: 13.1%
16,COc1ccc(OC)c(-c2cc(C(=O)NCCCn3ccnc3)no2)c1,inactive: 13.1%
17,COc1ccc(CN(C)C[C@@H]2Oc3ccc(NS(=O)(=O)c4ccc(Cl)cc4)cc3CC(=O)N([C@H](C)CO)C[C@H]2C)cc1,inactive: 34.8%
18,Cc1noc(C)c1S(=O)(=O)Nc1ccc2c(c1)CC(=O)N([C@@H](C)CO)C[C@@H](C)[C@@H](CN(C)Cc1ccc(Cl)c(Cl)c1)O2,inactive: 3.78% [at 21 µM]
19,CCCN1C(=O)C(O)(C/C(C)=N/O)c2ccccc21 (centres undefined),inactive: -3.34%
20,COCCn1c(-c2ccccc2F)n[nH]c1=S,inactive: 24%
21,COc1cc(C)c(C(C)C)cc1S(=O)(=O)NCCCn1ccnc1,inactive: -23%
22,C[C@@H]1CN([C@@H](C)CO)C(=O)c2cc(C#CC3CCCCC3)cnc2O[C@H]1CN(C)C(=O)C1CCCCC1,inactive: 7.55%
23,CS(=O)(=O)N(CC(=O)NCc1ccccc1)C1CCCCC1,inactive: 0.866%
24,COCc1c(C(=O)OC)nnn1-c1ccccc1,inactive: 8.34%
25,Cc1c(Br)cc(C(=O)N2CCCCCC2)c(C)c1C,inactive: -47.9%

row,SMILES,rescue activity (ATP increase)
1,C=C(C)Cn1c(CCCNC(=O)C(C)(C)C)nc2ccccc21,inactive: 0.573%
2,COC(=O)c1cc(S(=O)(=O)NCCc2ccccc2)c[nH]1,inactive: -7.87%
3,CCC(NS(=O)(=O)c1ccc(C)cc1)C(=O)Nc1ccc(NC(C)=O)cc1 (centres undefined),inactive: -17.2%
4,Cc1cccc(Nc2nc(CC(=O)O)cs2)c1,inactive: -21.3%
5,COc1ccccc1NC(=O)NC1(C(=O)N2CCCCCC2)CCCCC1,inactive: 14.8%
6,CCS(=O)(=O)N1CCCC(C(=O)NCCc2ccc(OC)c(OC)c2)C1 (centres undefined),inactive: -21.5%
7,O=C1CC(c2ccncc2)c2cc3c(cc2N1)OCCO3 (centres undefined),inactive: 28.1%
8,CC(C)NC(=O)CN1C(=O)NC(CCc2ccccc2)C1=O (centres undefined),inactive: -27.9%
9,CCOc1ccccc1CN1CCNC(=O)C1CC(=O)N(C)CCc1ccccn1 (centres undefined),inactive: -6.58%
10,C[C@H]1CN([C@@H](C)CO)C(=O)c2cc(C#CC3CCCCC3)cnc2O[C@@H]1CN(C)C(=O)C1CCCCC1,inactive: 8.63%
11,C[C@@H]1CN([C@H](C)CO)C(=O)Cc2cc(NC(=O)Cc3cn(C)c4ccccc34)ccc2O[C@H]1CN(C)Cc1ccc(-c2ccccc2)cc1,inactive: 9.45%
12,C[C@H](CO)N1C[C@H](C)[C@@H](CN(C)Cc2ccc(Cl)c(Cl)c2)Oc2c(cccc2N(C)C)C1=O,inactive: 19.5% [at 21 µM]
13,COc1ccc2[nH]c(=O)c(CNc3ccc(C)c(C)c3)cc2c1,inactive: 35.4%
14,COCCNC(=O)[C@@]1(Cc2ccccc2)C=C[C@@H](C)N1C(C)=O,inactive: -15.8%
15,C[C@@H]1CN([C@H](C)CO)C(=O)Cc2cc(NC(=O)Nc3cccc4ccccc34)ccc2O[C@H]1CN(C)CC1CCCCC1,inactive: 15.5%
16,O=C(O)CCC(=O)Nc1nnc(C(F)(F)F)s1,inactive: 1.86%
17,COc1ccc(S(=O)(=O)Nc2ccc3c(c2)C(=O)N([C@@H](C)CO)C[C@@H](C)[C@H](CN(C)S(=O)(=O)c2ccc(F)cc2)OCCCC[C@@H](C)O3)cc1,inactive: -17.1%
18,COc1ccc(S(=O)(=O)NCc2csc(C)n2)cc1,inactive: -5.58%
19,C[C@@H]1CN([C@H](C)CO)C(=O)c2cc(NS(=O)(=O)c3cccs3)ccc2O[C@@H](C)CCCCO[C@@H]1CN(C)Cc1ccc(C(F)(F)F)cc1,inactive: -13.6%
20,Cc1cc(=O)[nH]c(SCC2(O)C3CC4CC(C3)CC2C4)n1 (centres undefined),inactive: -5.83%
21,Cc1ccc(NC(=O)c2cc(-c3cccs3)on2)cc1C,inactive: -12.4%
22,NC(=O)C1CCN(Cc2nc3cc(Cl)ccc3c(=O)[nH]2)CC1,inactive: 9.91%
23,C=CCOC(=O)c1ccc(-n2cncn2)nc1,inactive: -9.68%
24,O=C(NCc1ccco1)c1ccccc1NS(=O)(=O)c1ccc2c(c1)OCCO2,inactive: 26%
25,O=C(O)CSc1nc(-c2ccccc2)nc2c1oc1ccccc12,inactive: -11.1%

# Reprinted at random: 2 records from the list.
row,SMILES,rescue activity (ATP increase)
21,Cc1ccc(NC(=O)c2cc(-c3cccs3)on2)cc1C,inactive: -12.4%
4,Cc1cccc(Nc2nc(CC(=O)O)cs2)c1,inactive: -21.3%

# The list goes on.

row,SMILES,rescue activity (ATP increase)
1,COc1ccc(CN2[C@H](CO)[C@H]3c4ccccc4N(C(=O)c4ccccc4)C[C@H]32)cc1,inactive: 21.3%
2,C[C@@H]1CN([C@H](C)CO)C(=O)Cc2cc(NS(=O)(=O)c3cn(C)cn3)ccc2O[C@H]1CN(C)Cc1ccc(-c2ccccc2)cc1,inactive: 27.2%
3,C[C@H](CO)N1C[C@H](C)[C@H](CN(C)Cc2ccc3c(c2)OCO3)Oc2ccc(NC(=O)NC3CCCCC3)cc2C1=O,inactive: 16.7%
4,COc1ccc(NC(=O)Nc2ccc3c(c2)C(=O)N([C@@H](C)CO)C[C@@H](C)[C@@H](CN(C)Cc2ccc(C(F)(F)F)cc2)OCCCC[C@H](C)O3)cc1,inactive: 12.6%
5,Cc1cccc2cc(COC(=O)c3cccnc3)c(=O)[nH]c12,inactive: -0.349%
6,Cc1ccc(NS(=O)(=O)c2ccc(C)c(C(=O)N3CCN(C)CC3)c2)cc1,inactive: 8.73%
7,COC(=O)COc1ccc(S(=O)(=O)Nc2ccccc2SC)cc1,inactive: 6.82%
8,C[C@H](CO)N1C[C@H](C)[C@H](CN(C)C(=O)Nc2cccc3ccccc23)OCCCC[C@H](C)Oc2ccc(NC(=O)Nc3ccc4c(c3)OCO4)cc2C1=O,inactive: -9.19%
9,Cc1noc(C)c1NC(=O)Nc1ccc2c(c1)C(=O)N([C@@H](C)CO)C[C@H](C)[C@@H](CN(C)S(=O)(=O)c1c(C)noc1C)OCCCC[C@@H](C)O2,inactive: 10.1%
10,C[C@H](CO)N1C[C@H](C)[C@H](CN(C)C(=O)Nc2ccccc2)Oc2ncc(-c3cc4ccccc4o3)cc2C1=O,inactive: 5.51% [at 21 µM]
11,O=C(O)CCCCCN1C(=O)/C(=C\c2ccc(-c3ccc(Cl)cc3)o2)SC1=S,inactive: 7.3%
12,COc1cc(C)c(Cl)cc1S(=O)(=O)NCCN1CCOCC1,inactive: 3.52%
13,Cc1ccc(C2C=C(c3ccccc3OC(F)F)Nc3ncnn32)cc1 (centres undefined),inactive: 19.5%
14,O=C(c1ccccc1)c1cccn1CC(=O)N1CCCCCC1,inactive: 16.6%
15,CCn1c2ccccc2c2cc(N)ccc21,inactive: 7.12%
16,C[C@@H]1CN([C@@H](C)CO)C(=O)c2cccc(NC(=O)c3ccncc3)c2O[C@@H]1CN(C)S(=O)(=O)c1ccc(Cl)cc1,inactive: 24.6%
17,C[C@H](CO)N1C[C@H](C)[C@@H](CN(C)S(=O)(=O)c2ccc(Cl)cc2)Oc2c(NC(=O)C3CCCCC3)cccc2C1=O,inactive: 18.1% [at 21 µM]
18,CNC[C@H]1Oc2ccc(NC(=O)c3ccncc3)cc2C(=O)N([C@@H](C)CO)C[C@@H]1C,inactive: 5.21% [at 21 µM]
19,CN1C(=O)c2cc(NS(=O)(=O)c3ccc(Cl)cc3)ccc2OC[C@@H]2O[C@H](CC(=O)N3CCc4ccccc4C3)CC[C@H]21,inactive: -18.4%
20,O=C(OCCOc1ccc(Br)cc1)c1cnccn1,inactive: 9.55%
21,C[C@@H]1CN([C@@H](C)CO)C(=O)c2cc(NC(=O)Nc3ccc(C(F)(F)F)cc3)ccc2O[C@H]1CN(C)Cc1ccc(C(=O)Nc2ccccc2N)cc1,inactive: 10.1%
22,CNC(=O)c1ccccc1S(=O)(=O)c1ccccc1C#N,inactive: 3.83%
23,C[C@H]1CN([C@@H](C)CO)C(=O)c2cccc(NS(=O)(=O)c3ccccc3)c2O[C@H]1CN(C)Cc1ccc(Oc2ccccc2)cc1,inactive: 0.64%
24,C[C@@H]1CCCCO[C@@H](CN(C)CC2CCCCC2)[C@@H](C)CN([C@H](C)CO)C(=O)c2cc(NS(=O)(=O)c3ccc(F)cc3)ccc2O1,inactive: 9.84%

# For convenience, 3 of the compounds above:
row,SMILES,rescue activity (ATP increase)
7,COC(=O)COc1ccc(S(=O)(=O)Nc2ccccc2SC)cc1,inactive: 6.82%
8,C[C@H](CO)N1C[C@H](C)[C@H](CN(C)C(=O)Nc2cccc3ccccc23)OCCCC[C@H](C)Oc2ccc(NC(=O)Nc3ccc4c(c3)OCO4)cc2C1=O,inactive: -9.19%
9,Cc1noc(C)c1NC(=O)Nc1ccc2c(c1)C(=O)N([C@@H](C)CO)C[C@H](C)[C@@H](CN(C)S(=O)(=O)c1c(C)noc1C)OCCCC[C@@H](C)O2,inactive: 10.1%
